These are yes or no findings as the source states them, for the method shown. In cells and extracts the contact can be indirect. Here binding means that the protein was enriched with, or labelled near, the bait; the list need not be complete. Each block holds one molecule with its values, some of them ahead of it.
What was measured:
[1] = target: GFP-RIF1-S (GFP-tagged full-length RIF1-Short, RAP1 interacting factor 1) (human) (UniProt Q5UIP0); assay: affinity purification with mass spectrometry; RIME: cells fixed with 1% formaldehyde for 8 min, nuclei digested with benzonase, GFP-RIF1 captured on GFP-Trap magnetic agarose beads, washed with RIPA buffer (0.5 M LiCl), on-bead trypsin digest, label-free quantitative LC-MS/MS; enrichment against GFP control IPs at FDR < 0.05
[2] = target: GFP-RIF1-L (GFP-tagged full-length RIF1-Long, RAP1 interacting factor 1) (human) (UniProt Q5UIP0); assay: as above

Sequences of proteins named here, by UniProt entry; tags and fusion partners are left off. A change or cut given only in a name is not applied to a line headed by its entry. A line that says so, or that is headed by a name, gives the form on record, which may keep a tag or linker.
UniProt Q5UIP0: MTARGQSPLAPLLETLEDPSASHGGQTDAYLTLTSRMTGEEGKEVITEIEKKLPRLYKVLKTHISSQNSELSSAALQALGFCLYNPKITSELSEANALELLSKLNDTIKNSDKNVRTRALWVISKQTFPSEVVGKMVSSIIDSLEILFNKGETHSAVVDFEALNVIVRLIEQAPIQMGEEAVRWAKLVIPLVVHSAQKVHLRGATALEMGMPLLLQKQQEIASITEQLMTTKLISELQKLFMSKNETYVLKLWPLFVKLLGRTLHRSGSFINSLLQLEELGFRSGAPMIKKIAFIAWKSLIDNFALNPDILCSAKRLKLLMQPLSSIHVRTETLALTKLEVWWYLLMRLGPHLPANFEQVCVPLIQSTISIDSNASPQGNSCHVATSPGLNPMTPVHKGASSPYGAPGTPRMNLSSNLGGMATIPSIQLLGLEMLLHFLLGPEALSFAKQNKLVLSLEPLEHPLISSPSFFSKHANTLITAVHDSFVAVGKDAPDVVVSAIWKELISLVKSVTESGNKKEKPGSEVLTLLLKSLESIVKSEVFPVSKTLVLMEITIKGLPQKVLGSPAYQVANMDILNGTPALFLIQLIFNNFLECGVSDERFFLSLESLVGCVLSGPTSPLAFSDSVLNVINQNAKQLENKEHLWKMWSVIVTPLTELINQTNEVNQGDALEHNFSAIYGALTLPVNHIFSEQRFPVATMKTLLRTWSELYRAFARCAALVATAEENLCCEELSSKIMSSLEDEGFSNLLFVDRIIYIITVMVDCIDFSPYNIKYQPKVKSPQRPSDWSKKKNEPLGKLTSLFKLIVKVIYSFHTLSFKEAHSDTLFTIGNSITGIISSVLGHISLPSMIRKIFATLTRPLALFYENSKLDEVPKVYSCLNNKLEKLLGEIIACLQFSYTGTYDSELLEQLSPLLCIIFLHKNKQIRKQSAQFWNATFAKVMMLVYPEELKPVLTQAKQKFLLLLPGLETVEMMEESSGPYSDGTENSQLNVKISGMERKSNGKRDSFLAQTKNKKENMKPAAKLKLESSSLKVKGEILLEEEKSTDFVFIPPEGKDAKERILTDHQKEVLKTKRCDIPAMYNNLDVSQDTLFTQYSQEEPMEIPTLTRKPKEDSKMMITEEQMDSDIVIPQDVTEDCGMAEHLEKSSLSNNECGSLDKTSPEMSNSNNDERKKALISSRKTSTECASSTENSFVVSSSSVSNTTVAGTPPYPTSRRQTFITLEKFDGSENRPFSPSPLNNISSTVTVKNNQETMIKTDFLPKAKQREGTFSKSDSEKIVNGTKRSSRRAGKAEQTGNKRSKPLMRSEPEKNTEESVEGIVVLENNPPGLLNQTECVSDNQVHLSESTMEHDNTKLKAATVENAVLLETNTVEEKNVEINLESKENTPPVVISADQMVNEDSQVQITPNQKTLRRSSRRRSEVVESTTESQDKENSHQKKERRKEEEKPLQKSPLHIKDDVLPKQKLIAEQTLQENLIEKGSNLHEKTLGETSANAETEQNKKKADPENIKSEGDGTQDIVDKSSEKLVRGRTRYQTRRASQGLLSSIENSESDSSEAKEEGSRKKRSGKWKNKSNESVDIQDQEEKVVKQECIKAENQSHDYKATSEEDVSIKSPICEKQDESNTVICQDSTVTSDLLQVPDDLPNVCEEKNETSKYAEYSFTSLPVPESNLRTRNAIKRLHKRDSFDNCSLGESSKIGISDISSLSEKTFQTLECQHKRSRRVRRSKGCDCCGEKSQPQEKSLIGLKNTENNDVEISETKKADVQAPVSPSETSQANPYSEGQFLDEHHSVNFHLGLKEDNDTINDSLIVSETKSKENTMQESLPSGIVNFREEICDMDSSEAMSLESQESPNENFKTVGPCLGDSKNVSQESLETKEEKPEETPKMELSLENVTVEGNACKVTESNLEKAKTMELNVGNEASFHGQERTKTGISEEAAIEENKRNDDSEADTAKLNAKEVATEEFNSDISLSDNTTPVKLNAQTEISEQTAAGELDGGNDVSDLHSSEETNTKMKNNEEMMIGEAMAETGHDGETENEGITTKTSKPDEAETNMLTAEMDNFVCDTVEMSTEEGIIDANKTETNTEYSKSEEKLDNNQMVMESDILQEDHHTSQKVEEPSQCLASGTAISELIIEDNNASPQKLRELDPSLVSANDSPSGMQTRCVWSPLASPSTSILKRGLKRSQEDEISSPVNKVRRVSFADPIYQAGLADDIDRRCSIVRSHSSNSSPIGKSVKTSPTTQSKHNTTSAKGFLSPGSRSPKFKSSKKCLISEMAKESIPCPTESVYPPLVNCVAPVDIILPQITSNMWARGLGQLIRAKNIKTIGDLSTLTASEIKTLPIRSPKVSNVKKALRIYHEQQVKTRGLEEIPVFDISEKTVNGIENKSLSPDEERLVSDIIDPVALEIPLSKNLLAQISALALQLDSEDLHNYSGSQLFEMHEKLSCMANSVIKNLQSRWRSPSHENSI
GFP-RIF1-S (GFP-tagged full-length RIF1-Short, RAP1 interacting factor 1) (Q5UIP0, form named): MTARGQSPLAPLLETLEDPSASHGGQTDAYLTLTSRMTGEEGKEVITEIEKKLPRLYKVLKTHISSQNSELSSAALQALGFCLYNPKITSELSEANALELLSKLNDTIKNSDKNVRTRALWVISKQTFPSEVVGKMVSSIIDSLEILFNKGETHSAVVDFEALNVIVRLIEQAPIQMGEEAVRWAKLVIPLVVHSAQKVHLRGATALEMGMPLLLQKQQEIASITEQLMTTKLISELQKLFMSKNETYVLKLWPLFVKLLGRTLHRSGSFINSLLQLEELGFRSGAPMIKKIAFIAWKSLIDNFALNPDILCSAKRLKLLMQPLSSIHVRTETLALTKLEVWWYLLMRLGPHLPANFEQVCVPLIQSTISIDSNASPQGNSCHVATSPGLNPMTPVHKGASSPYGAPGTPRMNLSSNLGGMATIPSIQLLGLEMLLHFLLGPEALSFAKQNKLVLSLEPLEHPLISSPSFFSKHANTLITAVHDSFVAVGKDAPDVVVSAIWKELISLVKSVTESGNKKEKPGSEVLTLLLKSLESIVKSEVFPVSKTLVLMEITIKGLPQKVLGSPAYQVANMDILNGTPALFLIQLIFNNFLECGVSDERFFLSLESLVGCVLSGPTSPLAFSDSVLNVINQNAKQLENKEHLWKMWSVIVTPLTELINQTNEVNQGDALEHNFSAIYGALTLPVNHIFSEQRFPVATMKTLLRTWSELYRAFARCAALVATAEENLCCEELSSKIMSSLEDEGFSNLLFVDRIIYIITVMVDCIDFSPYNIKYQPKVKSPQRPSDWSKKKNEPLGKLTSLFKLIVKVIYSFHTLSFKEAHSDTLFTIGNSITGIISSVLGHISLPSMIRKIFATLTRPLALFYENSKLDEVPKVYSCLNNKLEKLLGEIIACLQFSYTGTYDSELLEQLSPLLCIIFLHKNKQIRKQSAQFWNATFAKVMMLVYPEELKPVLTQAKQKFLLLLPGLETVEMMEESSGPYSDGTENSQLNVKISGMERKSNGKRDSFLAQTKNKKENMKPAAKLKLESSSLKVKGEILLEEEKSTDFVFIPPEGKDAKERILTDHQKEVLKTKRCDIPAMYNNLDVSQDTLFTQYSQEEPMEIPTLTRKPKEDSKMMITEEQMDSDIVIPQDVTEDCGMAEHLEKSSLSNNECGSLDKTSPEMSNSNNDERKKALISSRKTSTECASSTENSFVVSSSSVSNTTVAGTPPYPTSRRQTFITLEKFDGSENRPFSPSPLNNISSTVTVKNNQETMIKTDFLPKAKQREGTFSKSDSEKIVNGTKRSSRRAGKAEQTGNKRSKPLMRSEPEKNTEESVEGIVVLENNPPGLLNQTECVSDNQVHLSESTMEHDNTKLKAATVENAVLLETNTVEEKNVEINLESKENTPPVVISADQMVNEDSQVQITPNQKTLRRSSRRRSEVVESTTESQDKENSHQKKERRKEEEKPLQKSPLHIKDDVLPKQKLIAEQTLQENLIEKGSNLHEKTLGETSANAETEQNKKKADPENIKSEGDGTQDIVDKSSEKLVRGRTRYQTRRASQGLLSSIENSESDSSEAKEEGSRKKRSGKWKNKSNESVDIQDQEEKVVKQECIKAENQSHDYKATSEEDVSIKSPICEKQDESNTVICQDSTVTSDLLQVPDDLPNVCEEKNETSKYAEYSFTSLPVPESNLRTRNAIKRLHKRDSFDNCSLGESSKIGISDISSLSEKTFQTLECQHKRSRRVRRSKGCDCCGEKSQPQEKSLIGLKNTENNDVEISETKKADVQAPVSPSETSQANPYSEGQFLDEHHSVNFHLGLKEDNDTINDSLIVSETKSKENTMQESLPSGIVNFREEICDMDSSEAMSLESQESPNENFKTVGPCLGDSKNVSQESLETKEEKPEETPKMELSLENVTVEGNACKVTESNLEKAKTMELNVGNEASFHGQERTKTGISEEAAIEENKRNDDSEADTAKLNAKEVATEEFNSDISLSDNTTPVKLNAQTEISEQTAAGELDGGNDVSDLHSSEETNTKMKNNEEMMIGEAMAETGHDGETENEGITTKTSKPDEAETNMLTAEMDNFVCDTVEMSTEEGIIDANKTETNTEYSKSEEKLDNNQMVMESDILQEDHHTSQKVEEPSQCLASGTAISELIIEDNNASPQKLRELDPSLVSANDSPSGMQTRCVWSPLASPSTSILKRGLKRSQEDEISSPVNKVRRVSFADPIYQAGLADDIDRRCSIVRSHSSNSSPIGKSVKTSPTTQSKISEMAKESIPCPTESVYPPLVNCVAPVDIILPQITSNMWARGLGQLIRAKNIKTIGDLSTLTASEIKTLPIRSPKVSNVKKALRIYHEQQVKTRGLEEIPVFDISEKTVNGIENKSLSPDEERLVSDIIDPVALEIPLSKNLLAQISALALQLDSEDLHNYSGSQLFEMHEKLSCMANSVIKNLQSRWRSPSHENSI
UniProt Q9BUH6: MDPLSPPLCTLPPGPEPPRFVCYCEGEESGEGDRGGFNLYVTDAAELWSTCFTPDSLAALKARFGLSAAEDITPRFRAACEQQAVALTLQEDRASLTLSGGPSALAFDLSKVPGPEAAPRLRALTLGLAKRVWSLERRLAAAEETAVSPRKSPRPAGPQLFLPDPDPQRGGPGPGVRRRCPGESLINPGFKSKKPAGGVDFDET
UniProt Q9Y294: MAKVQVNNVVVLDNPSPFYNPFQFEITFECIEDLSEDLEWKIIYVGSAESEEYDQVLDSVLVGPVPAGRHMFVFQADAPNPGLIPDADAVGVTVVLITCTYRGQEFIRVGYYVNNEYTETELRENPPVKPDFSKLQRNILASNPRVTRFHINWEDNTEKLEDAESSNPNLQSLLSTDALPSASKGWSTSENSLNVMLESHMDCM
UniProt Q12834: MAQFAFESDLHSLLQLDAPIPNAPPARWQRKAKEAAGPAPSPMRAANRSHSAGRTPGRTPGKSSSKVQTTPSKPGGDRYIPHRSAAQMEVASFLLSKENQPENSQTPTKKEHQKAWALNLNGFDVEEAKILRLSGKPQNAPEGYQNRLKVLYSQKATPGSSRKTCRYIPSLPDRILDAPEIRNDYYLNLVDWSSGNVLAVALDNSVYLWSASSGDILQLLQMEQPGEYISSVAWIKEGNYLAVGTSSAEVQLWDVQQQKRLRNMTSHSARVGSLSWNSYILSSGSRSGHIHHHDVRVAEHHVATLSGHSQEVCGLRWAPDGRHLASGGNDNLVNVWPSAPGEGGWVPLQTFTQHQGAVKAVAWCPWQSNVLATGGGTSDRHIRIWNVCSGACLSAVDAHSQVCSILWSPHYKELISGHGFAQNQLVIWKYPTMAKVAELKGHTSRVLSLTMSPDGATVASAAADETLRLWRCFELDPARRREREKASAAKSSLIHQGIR
UniProt O00505: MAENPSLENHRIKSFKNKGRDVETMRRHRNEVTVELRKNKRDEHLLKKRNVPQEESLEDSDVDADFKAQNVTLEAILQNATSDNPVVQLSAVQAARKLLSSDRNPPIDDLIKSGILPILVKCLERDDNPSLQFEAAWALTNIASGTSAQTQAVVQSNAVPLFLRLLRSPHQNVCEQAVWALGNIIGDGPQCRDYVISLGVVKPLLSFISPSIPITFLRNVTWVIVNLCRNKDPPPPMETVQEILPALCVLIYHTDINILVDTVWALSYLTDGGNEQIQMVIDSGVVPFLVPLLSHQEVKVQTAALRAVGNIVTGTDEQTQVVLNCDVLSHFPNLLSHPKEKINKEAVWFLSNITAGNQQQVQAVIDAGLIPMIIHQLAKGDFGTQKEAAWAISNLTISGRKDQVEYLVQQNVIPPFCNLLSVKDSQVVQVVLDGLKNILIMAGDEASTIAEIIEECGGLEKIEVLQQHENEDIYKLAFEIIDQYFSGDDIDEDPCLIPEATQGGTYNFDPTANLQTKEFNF

- binding [1]: binds
- binding [2]: binds
Molecule: Claspin (CLSPN) (from UniProt Q9HAW4 1-1339)

- binding [1]: binds
Molecule: PAXX (paralog of XRCC4 and XLF) (from UniProt Q9BUH6 1-204)

- binding [1]: binds
- binding [2]: binds
Molecule: anti-silencing function 1A histone chaperone ASF1A (from UniProt Q9Y294 1-204)

- binding [1]: binds
- binding [2]: binds
Molecule: cell division cycle 20 (CDC20) (from UniProt Q12834 1-499)

- binding [1]: binds
- binding [2]: binds
Molecule: centromere protein F (CENPF) (from UniProt P49454 1-3114)

- binding [2]: binds
Molecule: mediator of DNA damage checkpoint 1 (MDC1) (from UniProt Q14676 1-2089)

- binding [1]: binds
- binding [2]: binds
Molecule: microtubule nucleation factor TPX2 (from UniProt Q9ULW0 1-747)

- binding [2]: binds
Molecule: nuclear import receptor karyopherin α 3 (KPNA3) (from UniProt O00505 1-521)

- binding [1]: binds
Molecule: tumor protein p53 binding protein 1 (53BP1) (from UniProt Q12888 1-1972)

- binding [1]: binds
- binding [2]: binds
B1: kinesin family member 4A (KIF4A) (protein, UniProt O95239 1-1232)
chain: MKEEVKGIPVRVALRCRPLVPKEISEGCQMCLSFVPGEPQVVVGTDKSFTYDFVFDPSTEQEEVFNTAVAPLIKGVFKGYNATVLAYGQTGSGKTYSMGGAYTAEQENEPTVGVIPRVIQLLFKEIDKKSDFEFTLKVSYLEIYNEEILDLLCPSREKAQINIREDPKEGIKIVGLTEKTVLVALDTVSCLEQGNNSRTVASTAMNSQSSRSHAIFTISLEQRKKSDKNSSFRSKLHLVDLAGSERQKKTKAEGDRLKEGININRGLLCLGNVISALGDDKKGGFVPYRDSKLTRLLQDSLGGNSHTLMIACVSPADSNLEETLNTLRYADRARKIKNKPIVNIDPQTAELNHLKQQVQQLQVLLLQAHGGTLPGSITVEPSENLQSLMEKNQSLVEENEKLSRGLSEAAGQTAQMLERIILTEQANEKMNAKLEELRQHAACKLDLQKLVETLEDQELKENVEIICNLQQLITQLSDETVACMAAAIDTAVEQEAQVETSPETSRSSDAFTTQHALRQAQMSKELVELNKALALKEALARKMTQNDSQLQPIQYQYQDNIKELELEVINLQKEKEELVLELQTAKKDANQAKLSERRRKRLQELEGQIADLKKKLNEQSKLLKLKESTERTVSKLNQEIRMMKNQRVQLMRQMKEDAEKFRQWKQKKDKEVIQLKERDRKRQYELLKLERNFQKQSNVLRRKTEEAAAANKRLKDALQKQREVADKRKETQSRGMEGTAARVKNWLGNEIEVMVSTEEAKRHLNDLLEDRKILAQDVAQLKEKKESGENPPPKLRRRTFSLTEVRGQVSESEDSITKQIESLETEMEFRSAQIADLQQKLLDAESEDRPKQRWENIATILEAKCALKYLIGELVSSKIQVSKLESSLKQSKTSCADMQKMLFEERNHFAEIETELQAELVRMEQQHQEKVLYLLSQLQQSQMAEKQLEESVSEKEQQLLSTLKCQDEELEKMREVCEQNQQLLRENEIIKQKLTLLQVASRQKHLPKDTLLSPDSSFEYVPPKPKPSRVKEKFLEQSMDIEDLKYCSEHSVNEHEDGDGDDDEGDDEEWKPTKLVKVSRKNIQGCSCKGWCGNKQCGCRKQKSDCGVDCCCDPTKCRNRQQGKDSLGTVERTQDSEGSFKLEDPTEVTPGLSFFNPVCATPNSKILKEMCDVEQVLSKKTPPAPSPFDLPELKHVATEYQENKAPGKKKKRALASNTSFFSGCSPIEEEAH

- binding [1]: binds
- binding [2]: binds
B2: kinesin family member 23 (KIF23) (protein, UniProt Q02241 1-960)
chain: MKSARAKTPRKPTVKKGSQTNLKDPVGVYCRVRPLGFPDQECCIEVINNTTVQLHTPEGYRLNRNGDYKETQYSFKQVFGTHTTQKELFDVVANPLVNDLIHGKNGLLFTYGVTGSGKTHTMTGSPGEGGLLPRCLDMIFNSIGSFQAKRYVFKSNDRNSMDIQCEVDALLERQKREAMPNPKTSSSKRQVDPEFADMITVQEFCKAEEVDEDSVYGVFVSYIEIYNNYIYDLLEEVPFDPIKPKPPQSKLLREDKNHNMYVAGCTEVEVKSTEEAFEVFWRGQKKRRIANTHLNRESSRSHSVFNIKLVQAPLDADGDNVLQEKEQITISQLSLVDLAGSERTNRTRAEGNRLREAGNINQSLMTLRTCMDVLRENQMYGTNKMVPYRDSKLTHLFKNYFDGEGKVRMIVCVNPKAEDYEENLQVMRFAEVTQEVEVARPVDKAICGLTPGRRYRNQPRGPVGNEPLVTDVVLQSFPPLPSCEILDINDEQTLPRLIEALEKRHNLRQMMIDEFNKQSNAFKALLQEFDNAVLSKENHMQGKLNEKEKMISGQKLEIERLEKKNKTLEYKIEILEKTTTIYEEDKRNLQQELETQNQKLQRQFSDKRRLEARLQGMVTETTMKWEKECERRVAAKQLEMQNKLWVKDEKLKQLKAIVTEPKTEKPERPSRERDREKVTQRSVSPSPVPLSSNYIAQISNGQQLMSQPQLHRRSNSCSSISVASCISEWEQKIPTYNTPLKVTSIARRRQQEPGQSKTCIVSDRRRGMYWTEGREVVPTFRNEIEIEEDHCGRLLFQPDQNAPPIRLRHRRSRSAGDRWVDHKPASNMQTETVMQPHVPHAITVSVANEKALAKCEKYMLTHQELASDGEIETKLIKGDIYKTRGGGQSVQFTDIETLKQESPNGSRKRRSSTVAPAQPDGAESEWTDVETRCSVAVEMRAGSQLGPGYQHHAQPKRKKP

— paper PMC12702018
